Data as given in PubChem BioAssay AID720505 (Drosophila RNAi Screening Center, 2013).
In all, the deposit lists about 20,000 reagents; this is an unselected part of those that have a named target and a result. Of all reagents, about 2,100 (10%) were called active. 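Raw plate signals without normalisation; calls rest on control-based scores that were not deposited; replicate 2 separates called from uncalled poorly.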 Reagents against one gene are numbered here. A plus sign joins genes that one reagent is predicted to hit. The record does not give: the amount of reagent, the time to read-out.

Purpose: 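Knock-downs that reduce calcium influx once internal stores are emptied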 (primary screen)
System: Drosophila S2R+ cells
Knock-down reagent: long dsRNA against Drosophila genes
Challenge: thapsigargin (2 µM) in calcium-free buffer to empty internal stores, then 2 mM calcium added back
Read-out: 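Fluo-4 signal in 384-well plates read on a FLIPR after thapsigargin (2 µM, calcium-free) store depletion and 2 mM calcium add-back; unnormalised mean endpoint per well; screen run twice, selected wells retested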
Reading the numbers: calcium signal: higher = more calcium entry after store depletion
Hit rule: 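About 1500 genes called as lowering calcium entry, by varying amounts, judged against per-plate control wells with STIM1 as positive and Rho1 as negative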
Calls: active = called as lowering calcium entry; inactive = not called

gene | dsRNA no. | calcium signal, replicate 1 | calcium signal, replicate 2 | Outcome
witty (without maturity) | 1 | 170 | 170 | inactive
witty (without maturity) | 2 | 186 | 104 | inactive
CG1324 | 1 | 193 | 138 | inactive
Mad1 (Mitotic arrest-deficient 1) | 1 | 154 | 101 | inactive
mrj | 1 | 121 | 138 | inactive
CG8117 | 1 | 67.1 | 117 | active
LysP (Lysozyme P) | 1 | 82.5 | 124 | inactive
CG42232 | 1 | 137 | 219 | inactive
CG42232 | 2 | 174 | 242 | inactive
Wdr37 (WD repeat domain 37) | 1 | 213 | 243 | inactive
RpL35 (Ribosomal protein L35) | 1 | 131 | 96.9 | inactive
Start1 | 1 | 149 | 91.7 | inactive
Opa1 (Optic atrophy 1) | 1 | 122 | 193 | inactive
Alp2 (Alkaline phosphatase 2) | 1 | 55.9 | 190 | inactive
CG7222 | 1 | 189 | 74.8 | inactive
Dop1R1 (Dopamine 1-like receptor 1) | 1 | – | – | inactive
Dop1R1 (Dopamine 1-like receptor 1) | 2 | 94.3 | 111 | inactive
CG4363 | 1 | 175 | 117 | inactive
Ir7a (Ionotropic receptor 7a) | 1 | 229 | 74.9 | inactive
Drp1 (Dynamin related protein 1) | 1 | 62.1 | 158 | active
CG14440 | 1 | 188 | 128 | inactive
CG14440 | 2 | 181 | 170 | inactive
CG14440 | 3 | 88.8 | 156 | inactive
Eph (Eph receptor tyrosine kinase) | 1 | 93.5 | 150 | inactive
CG31921 | 1 | 119 | 144 | inactive
CG43104 (retired record) | 1 | 71 | 92 | inactive
sturkopf | 1 | 141 | 139 | inactive
Sytbeta (Synaptotagmin beta) | 1 | 78.2 | 163 | inactive
Sytbeta (Synaptotagmin beta) | 2 | 104 | 161 | inactive
Spn100A (Serpin 100A) | 1 | 119 | 159 | inactive
CG8642 | 1 | 122 | 149 | inactive
CG15097 | 1 | 106 | 121 | inactive
Msp300 (Muscle-specific protein 300 kDa) | 1 | 85.7 | 157 | inactive
Msp300 (Muscle-specific protein 300 kDa) | 2 | 74.1 | 148 | inactive
Msp300 (Muscle-specific protein 300 kDa) | 3 | 87.7 | 164 | inactive
Msp300 (Muscle-specific protein 300 kDa) | 4 | 89.3 | 142 | inactive
Msp300 (Muscle-specific protein 300 kDa) | 5 | 137 | 91.5 | inactive
Msp300 (Muscle-specific protein 300 kDa) | 6 | 64.5 | 208 | active
Msp300 (Muscle-specific protein 300 kDa) | 7 | 182 | 83.1 | inactive
ND-B17.2 (NADH dehydrogenase (ubiquinone) B17.2 subunit) | 1 | 151 | 151 | inactive
CG13203 | 1 | 91.7 | 154 | inactive
Ptp10D (Protein tyrosine phosphatase 10D) | 1 | 133 | 92.9 | inactive
CG11413 + CG4622 | 1 | 134 | 173 | inactive
CG33704 | 1 | 89.1 | 7964 | inactive

6 of these entries in another layout.
{"gene":"CG1324","dsRNA no.":1,"calcium signal, replicate 1":193,"calcium signal, replicate 2":138,"Outcome":"inactive"}
{"gene":"Mad1 (Mitotic arrest-deficient 1)","dsRNA no.":1,"calcium signal, replicate 1":154,"calcium signal, replicate 2":101,"Outcome":"inactive"}
{"gene":"mrj","dsRNA no.":1,"calcium signal, replicate 1":121,"calcium signal, replicate 2":138,"Outcome":"inactive"}
{"gene":"CG8117","dsRNA no.":1,"calcium signal, replicate 1":67.1,"calcium signal, replicate 2":117,"Outcome":"active"}
{"gene":"LysP (Lysozyme P)","dsRNA no.":1,"calcium signal, replicate 1":82.5,"calcium signal, replicate 2":124,"Outcome":"inactive"}
{"gene":"CG42232","dsRNA no.":1,"calcium signal, replicate 1":137,"calcium signal, replicate 2":219,"Outcome":"inactive"}

Further entries:
gene | dsRNA no. | calcium signal, replicate 1 | calcium signal, replicate 2 | Outcome
Tap42 (Two A-associated protein of 42kDa) | 1 | 111 | 188 | inactive
Ance-3 | 1 | 90.3 | 95.8 | inactive
Ance-3 | 2 | 125 | 148 | inactive
wun (wunen) | 1 | 134 | 171 | inactive
Acp95EF + Spase22-23 | 1 | 178 | 136 | inactive
NimC4 (Nimrod C4) | 1 | 123 | 115 | inactive
LSm7 (Like Sm 7) | 1 | 90.9 | 102 | inactive
Shal (Shaker cognate l) | 1 | 91.2 | 142 | inactive
tho2 | 1 | 73.3 | 96.8 | inactive
CG13285 | 1 | 93.2 | 74.9 | inactive
SREBP (Sterol regulatory element binding protein) | 1 | 111 | 134 | inactive
POSH (Plenty of SH3s) | 1 | 192 | 178 | inactive
Acer (Angiotensin-converting enzyme-related) | 1 | 79.8 | 70.7 | inactive
KP78b + KP78a | 1 | 72.9 | 122 | inactive
KP78b + KP78a | 2 | 97 | 136 | inactive
CG8087 | 1 | 121 | 119 | inactive
CR30409 (pseudo) | 1 | 75.8 | 172 | inactive
CG6661 + asRNA:CR42871 | 1 | 80.6 | 68.1 | inactive
Letm1 | 1 | 108 | 91.9 | inactive
BI-1 (Bax Inhibitor-1) | 1 | 72.6 | 84.6 | active
CG33627 | 1 | 106 | 104 | inactive
CG16789 | 1 | 202 | 136 | inactive
CG9922 | 1 | 114 | 151 | inactive
Irbp (Inverted repeat-binding protein) | 1 | 105 | 110 | inactive
Irbp (Inverted repeat-binding protein) | 2 | 95 | 152 | inactive
CG10205 | 1 | 87.3 | 190 | inactive
dl (dorsal) | 1 | 91.4 | 111 | inactive
dl (dorsal) | 2 | 143 | 155 | inactive
CG30039 | 1 | 114 | 87.9 | inactive
Amnionless | 1 | 159 | 147 | inactive
Jon99Fii (Jonah 99Fii) | 1 | 145 | 140 | inactive
scramb2 (scramblase 2) | 1 | 78.8 | 84.1 | inactive
Vtld + CG42529 | 1 | 86.6 | 128 | inactive
Vps28 (Vacuolar protein sorting 28) | 1 | 190 | 203 | inactive
CG31681 | 1 | 92.1 | 180 | inactive
CCHa1 (CCHamide-1) | 1 | 111 | 116 | inactive
CG10993 | 1 | 59.1 | 81.1 | active
CG5026 | 1 | 65 | 100 | active
CG11437 | 1 | 85.5 | 137 | inactive
